Results taken from publication PMC4476799, “Englerin A Agonizes the TRPC4/C5 Cation Channels to Inhibit Tumor Cell Line Proliferation” (PLoS ONE, 2015).
This continues a long series; more values of the same kind are listed elsewhere.

Test system: cancer cell lines from the cancer cell line encyclopedia (CCLE)
Test: Cell line profiling (CLiP) proliferation experiment
Assay type: cell-based
Design: ACTIVITY_AREA: scale not given here; AMAX: unit not given here
Description: Compound profiling experiment and data analysis was performed as previously described. Data was imported and plotted using the Tibco Spotfire DXP application. Lines were categorized as sensitive, intermediate and refractory as follows: Amax<-40 & Inflection Point <2 ~ Sensitive, Amax>-20 & Inflection Point >10 ~ Refractory, all else were called Intermediate. Cancer Cell line HG-U133 Plus 2 data was processed and normalized as described. […] Five sets of refractory cell lines were generated from the pool of refractory cell lines trying to match the lineage composition of the set of sensitive cell lines. The limma package was used as previously described to perform the statistical comparison.

[1] = NCI-H196, lung, small_cell_carcinoma
[2] = NCI-H226, lung, squamous_cell_carcinoma
[3] = NCI-H358, lung, bronchioloalveolar_adenocarcinoma
[4] = NCI-H460, lung, large_cell_carcinoma
[5] = NCI-H520, lung, squamous_cell_carcinoma
[6] = NCI-H596, lung, mixed_adenosquamous_carcinoma
[7] = NCI-H647, lung, mixed_adenosquamous_carcinoma
[8] = NCI-H650, lung, bronchioloalveolar_adenocarcinoma
[9] = NCI-H661, lung, large_cell_carcinoma
[10] = NCI-H716, large_intestine, adenocarcinoma
[11] = NCI-H810, lung, large_cell_carcinoma
[12] = NCI-H841, lung, small_cell_carcinoma
[13] = NCI-H1792, lung, adenocarcinoma
[14] = NCI-H1793, lung, adenocarcinoma
[15] = NCI-H1869, lung, squamous_cell_carcinoma
[16] = NCI-H1944, lung, adenocarcinoma
[17] = NCI-H1975, lung, adenocarcinoma
[18] = NCI-H2023, lung, adenocarcinoma
[19] = NCI-H2073, lung, adenocarcinoma
[20] = NCI-H2106, lung, non_small_cell_carcinoma
[21] = NCI-H2122, lung, adenocarcinoma
[22] = NCI-H2126, lung, adenocarcinoma
[23] = NCI-H2170, lung, squamous_cell_carcinoma
[24] = NCI-H2172, lung, non_small_cell_carcinoma
[25] = NCI-H2330, lung, small_cell_carcinoma
[26] = NCI-H2405, lung, adenocarcinoma
[27] = NCI-H3255, lung, adenocarcinoma
[28] = NUGC-4, stomach, signet_ring_adenocarcinoma
[29] = OC 314, ovary, serous_carcinoma
[30] = OCI-AML2, haematopoietic_and_lymphoid_tissue, acute_myeloid_leukaemia

In the case of `CC(C)[C@@]12C[C@@H](O)[C@@](C)(O1)[C@@H]1CC[C@@H](C)[C@H]1[C@@H]2OC(=O)/C=C/c1ccccc1` [Englerin B], the AMAX (NCI-H146 cells) is reported as -5.12, the RESPONSE (NCI-H146 cells) is reported as “REFRACTORY” and the ACTIVITY_AREA [1] is reported as 25.48. The AMAX [1] was -3.26, the RESPONSE [1] was “REFRACTORY” and the ACTIVITY_AREA [2] was 84.84. For the same molecule, the AMAX [2] was -41.44, the RESPONSE [2] was “INTERMEDIATE” and the ACTIVITY_AREA [3] was 28.35. The AMAX [3] was -65.38, the RESPONSE [3] was “INTERMEDIATE” and the ACTIVITY_AREA (NCI-H441, lung, adenocarcinoma) was 12.16. For the same molecule, the AMAX (NCI-H441, lung, adenocarcinoma) was -29.95, the RESPONSE (NCI-H441, lung, adenocarcinoma) was “INTERMEDIATE” and the ACTIVITY_AREA [4] was 22.87. For the same molecule, the AMAX [4] was -32.1, the RESPONSE [4] was “INTERMEDIATE” and the ACTIVITY_AREA [5] was 15.26. The AMAX [5] was -40.14, the RESPONSE [5] was “INTERMEDIATE” and the ACTIVITY_AREA (NCI-H520 cells) was 15.26. For the same molecule, the AMAX (NCI-H520 cells) was -40.14, the RESPONSE (NCI-H520 cells) was “INTERMEDIATE” and the ACTIVITY_AREA [6] was 29.87. For the same molecule, the AMAX [6] was -8.32, the RESPONSE [6] was “REFRACTORY” and the ACTIVITY_AREA (NCI-H596 cells) was 29.87. For the same molecule, the AMAX (NCI-H596 cells) was -8.32, the RESPONSE (NCI-H596 cells) was “REFRACTORY” and the ACTIVITY_AREA [7] was 65.46. For the same molecule, the AMAX [7] was -63.95, the RESPONSE [7] was “INTERMEDIATE” and the ACTIVITY_AREA [8] was 45.05. The AMAX [8] was -79.38, the RESPONSE [8] was “INTERMEDIATE” and the ACTIVITY_AREA (NCI-H650 cells) was 45.05. The AMAX (NCI-H650 cells) was -79.38, the RESPONSE (NCI-H650 cells) was “INTERMEDIATE” and the ACTIVITY_AREA [9] was 26.82. The AMAX [9] was -36.56, the RESPONSE [9] was “INTERMEDIATE” and the ACTIVITY_AREA (NCI-H661 cells) was 26.82. For the same molecule, the AMAX (NCI-H661 cells) was -36.56, the RESPONSE (NCI-H661 cells) was “INTERMEDIATE” and the ACTIVITY_AREA [10] was 14.18. The AMAX [10] was -50.31, the RESPONSE [10] was “INTERMEDIATE” and the ACTIVITY_AREA (NCI-H716 cells) was 14.18. For the same molecule, the AMAX (NCI-H716 cells) was -50.31, the RESPONSE (NCI-H716 cells) was “INTERMEDIATE” and the ACTIVITY_AREA (NCI-H727, lung, NS) was 5.2. For the same molecule, the AMAX (NCI-H727, lung, NS) was 5.53, the RESPONSE (NCI-H727, lung, NS) was “REFRACTORY” and the ACTIVITY_AREA [11] was 14.12. For the same molecule, the AMAX [11] was -56.53, the RESPONSE [11] was “INTERMEDIATE” and the ACTIVITY_AREA (NCI-H838, lung, adenocarcinoma) was 25.71. The AMAX (NCI-H838, lung, adenocarcinoma) was -49.02, the RESPONSE (NCI-H838, lung, adenocarcinoma) was “INTERMEDIATE” and the ACTIVITY_AREA (NCI-H838 cells) was 25.71. For the same molecule, the AMAX (NCI-H838 cells) was -49.02, the RESPONSE (NCI-H838 cells) was “INTERMEDIATE” and the ACTIVITY_AREA [12] was 38.09. For the same molecule, the AMAX [12] was -87.59, the RESPONSE [12] was “INTERMEDIATE” and the ACTIVITY_AREA (NCI-H1437 cells) was 17.29. For the same molecule, the AMAX (NCI-H1437 cells) was -45.72, the RESPONSE (NCI-H1437 cells) was “INTERMEDIATE” and the ACTIVITY_AREA (NCI-H1573 cells) was 188.17. The AMAX (NCI-H1573 cells) was -69.31, the RESPONSE (NCI-H1573 cells) was “INTERMEDIATE” and the ACTIVITY_AREA (NCI-H1581 cells) was 35.15. The AMAX (NCI-H1581 cells) was -92.8, the RESPONSE (NCI-H1581 cells) was “INTERMEDIATE” and the ACTIVITY_AREA (NCI-H1650 (lung)) was 37.78. For the same molecule, the AMAX (NCI-H1650 (lung)) was -54.12, the RESPONSE (NCI-H1650 (lung)) was “INTERMEDIATE” and the ACTIVITY_AREA (NCI-H1651 cells) was 18.25. The AMAX (NCI-H1651 cells) was -33.21, the RESPONSE (NCI-H1651 cells) was “INTERMEDIATE” and the ACTIVITY_AREA [13] was 40.56. For the same molecule, the AMAX [13] was -58.43, the RESPONSE [13] was “INTERMEDIATE” and the ACTIVITY_AREA [14] was 61.94. The AMAX [14] was -45.66, the RESPONSE [14] was “INTERMEDIATE” and the ACTIVITY_AREA [15] was 89.5. The AMAX [15] was -43.09, the RESPONSE [15] was “INTERMEDIATE” and the ACTIVITY_AREA (NCI-H1869 cells) was 89.5. The AMAX (NCI-H1869 cells) was -43.09, the RESPONSE (NCI-H1869 cells) was “INTERMEDIATE” and the ACTIVITY_AREA [16] was 49.5. For the same molecule, the AMAX [16] was -75.02, the RESPONSE [16] was “INTERMEDIATE” and the ACTIVITY_AREA [17] was 14.51. The AMAX [17] was -27.94, the RESPONSE [17] was “INTERMEDIATE” and the ACTIVITY_AREA (NCI-H1975 cells) was 14.51. For the same molecule, the AMAX (NCI-H1975 cells) was -27.94, the RESPONSE (NCI-H1975 cells) was “INTERMEDIATE” and the ACTIVITY_AREA [18] was 80.88. The AMAX [18] was -75.61, the RESPONSE [18] was “INTERMEDIATE” and the ACTIVITY_AREA [19] was 37.97. The AMAX [19] was -56.11, the RESPONSE [19] was “INTERMEDIATE” and the ACTIVITY_AREA [20] was 11.07. For the same molecule, the AMAX [20] was -48.52, the RESPONSE [20] was “INTERMEDIATE” and the ACTIVITY_AREA [21] was 59.74. For the same molecule, the AMAX [21] was -36.73, the RESPONSE [21] was “INTERMEDIATE” and the ACTIVITY_AREA [22] was 14.2. For the same molecule, the AMAX [22] was -49.33, the RESPONSE [22] was “INTERMEDIATE” and the ACTIVITY_AREA (NCI-H2126 cells) was 14.2. For the same molecule, the AMAX (NCI-H2126 cells) was -49.33, the RESPONSE (NCI-H2126 cells) was “INTERMEDIATE” and the ACTIVITY_AREA [23] was 17.29. For the same molecule, the AMAX [23] was -44.7, the RESPONSE [23] was “INTERMEDIATE” and the ACTIVITY_AREA [24] was 44.13. The AMAX [24] was -55.3, the RESPONSE [24] was “INTERMEDIATE” and the ACTIVITY_AREA [25] was 44.98. The AMAX [25] was -45.58, the RESPONSE [25] was “INTERMEDIATE” and the ACTIVITY_AREA [26] was 32.39. For the same molecule, the AMAX [26] was -42.88, the RESPONSE [26] was “INTERMEDIATE” and the ACTIVITY_AREA (NCI-H2452, pleura, NS) was 32.7. For the same molecule, the AMAX (NCI-H2452, pleura, NS) was -2.13, the RESPONSE (NCI-H2452, pleura, NS) was “REFRACTORY” and the ACTIVITY_AREA [27] was 13.21. For the same molecule, the AMAX [27] was -56.75, the RESPONSE [27] was “INTERMEDIATE” and the ACTIVITY_AREA (NCI-H3255 cells) was 13.21. The AMAX (NCI-H3255 cells) was -56.75, the RESPONSE (NCI-H3255 cells) was “INTERMEDIATE” and the ACTIVITY_AREA (NUGC-3, stomach, NS) was 62.26. The AMAX (NUGC-3, stomach, NS) was -47.92, the RESPONSE (NUGC-3, stomach, NS) was “INTERMEDIATE” and the ACTIVITY_AREA (NUGC-3 cells) was 62.26. The AMAX (NUGC-3 cells) was -47.92, the RESPONSE (NUGC-3 cells) was “INTERMEDIATE” and the ACTIVITY_AREA [28] was 16.21. For the same molecule, the AMAX [28] was -60.16, the RESPONSE [28] was “INTERMEDIATE” and the ACTIVITY_AREA (NUGC-4 cells) was 16.21. The AMAX (NUGC-4 cells) was -60.16, the RESPONSE (NUGC-4 cells) was “INTERMEDIATE” and the ACTIVITY_AREA (OAW42, ovary, adenocarcinoma) was 29.5. The AMAX (OAW42, ovary, adenocarcinoma) was 1.81, the RESPONSE (OAW42, ovary, adenocarcinoma) was “REFRACTORY” and the ACTIVITY_AREA (OAW42 cells) was 29.5. For the same molecule, the AMAX (OAW42 cells) was 1.81, the RESPONSE (OAW42 cells) was “REFRACTORY” and the ACTIVITY_AREA [29] was 19.97. The AMAX [29] was -21.14, the RESPONSE [29] was “INTERMEDIATE” and the ACTIVITY_AREA (OC 314 cells) was 19.97. The AMAX (OC 314 cells) was -21.14, the RESPONSE (OC 314 cells) was “INTERMEDIATE” and the ACTIVITY_AREA (OC 316, ovary, adenocarcinoma) was 40.59. For the same molecule, the AMAX (OC 316, ovary, adenocarcinoma) was -6.47, the RESPONSE (OC 316, ovary, adenocarcinoma) was “REFRACTORY” and the ACTIVITY_AREA [30] was 39.6. For the same molecule, the AMAX [30] was -90.91, the RESPONSE [30] was “INTERMEDIATE” and the ACTIVITY_AREA (OCI-AML2 cells) was 39.6. The AMAX (OCI-AML2 cells) was -90.91.
